Measured values as given in article PMC6983213, “Combining Chalcones with Donepezil to Inhibit Both Cholinesterases and Aβ Fibril Assembly” (Molecules, 2019).
Structures can show the parent of a compound that is named as a salt.

Protein sequences, listed by entry. Tags and fused reporters are not part of them. Residues count along the entry.
UniProt P05067, 672-713: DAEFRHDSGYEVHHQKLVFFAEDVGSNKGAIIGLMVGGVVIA

Key:
[1] = target: T1, N-biotinyl-Aβ(1–42) (bioAβ42) oligomer assembly (Homo sapiens, UniProt P05067); assay type: biochemical; conditions: 1.56 to 50 μM; alone or in 1:1 / 1:1:1 mixtures
T1 construct: N-biotinyl Aβ(1–42) (bioAβ42) was purchased from Anaspec; purchased Anaspec (Fremont, CA, USA) AS-23523-05
Description: We first examined the effect of the synthesized 1,3- and 1,4-chalcone-donepezil hybrids 15a–15f and 16a–16f on the assembly of N-biotinyl-Aβ(1–42) (bioAβ42) monomers into oligomers. We quantified the assembly of bioAβ42 into soluble oligomers by using an ELISA assay in which the soluble oligomers were captured on NeutrAvidin^TM-coated ELISA plates and detected with streptavidin-horseradish peroxidase and colorimetric readout (Figure 3).
The plates were then stored in their blocked form at 4 °C prior to use for the oligomer assembly and dissociation assays.
The assembly of bioAβ42 into soluble oligomers was quantified with an ELISA assay in which the soluble oligomers were captured with the NeutrAvidin^TM coating the ELISA plates. The bound oligomers were detected with streptavidin-horseradish peroxidase (SA-HRP). […] Below, please find the details of the three steps (Steps 1–3) used for the oligomer assembly assay.
Step 1: Preparation of monomeric bioAβ42. For a low background, it was essential to rigorously pretreat the bioAβ42 peptide to convert (disaggregate) the multimeric species that form upon storage in the solid state, or even frozen in 1,1,1,3,3,3-hexafluoroisopropanol (HFIP) to monomers. […]
Step 3: Measurement of bioAβ42 oligomers. […] The absorbance of each well was read at 450 nm with a BioTek HT Synergy plate reader. […]

[2] = target: T2, preformed bioAβ42 oligomers (Homo sapiens, UniProt P05067); assay: bioAβ42 oligomer dissociation assay (NeutrAvidin ELISA); assay type: biochemical; conditions: 0.01 to 50 μM; ~18 h; alone or in 1:1 / 1:1:1 mixtures
T2 construct: N-biotinyl Aβ(1–42) (bioAβ42) was purchased from Anaspec; purchased Anaspec (Fremont, CA, USA) AS-23523-05
Description: Dissociation of preformed oligomers of bioAβ42 was measured by pretreating biotinylated oligomers with solvent controls or compounds for a period of time, capturing them with NeutrAvidin^TM on ELISA plates, and detecting the remaining bound oligomers with SA-HRP [77] as described above. Below, please find the details of the two steps (Steps 1 and 2) used for the oligomer dissociation assay.
Step 1: Preformed bioAβ42 oligomers (sufficient for 400 wells). In total, 1 μg of bioAβ42 peptide (1 mg/mL dissolved in HFIP) was pipetted into 20 μL of HFIP in a polypropylene microfuge tube, and dried to a thin film under a gentle air or N2 stream. The film was dissolved in 250 μL of DMSO and vortexed. […] After incubation at rt for 1 h with intermittent vortexing, 0.375 mL of 100 mM Tween 20 (10% v/v) in distilled H2O was added to make the final Tween 20 concentration 0.3% v/v. The preformed oligomers were mixed by inversion and aliquoted for storage at −75 °C. Note: Multiple freeze-thaw cycles should be avoided.
Step 2: Oligomer dissociation assay. […] Then, 25 μL of the preformed bio42 oligomers adjusted to 0.6% v/v Tween 20 was pipetted into each well of a polypropylene 96-well plate. […] The plates were sealed and shaken at 150 rpm overnight at rt. […] The oligomer content of that aliquot was measured as described for the bioAβ42 oligomer assembly assay. […]

COc1cc2c(cc1OC)C(=O)C(CC1CCN(Cc3ccccc3)CC1)C2 (centres unmarked) [Donepezil·HCl, reference compound]
bioAβ42 oligomer assembly inhibition (in words) [1]: did not inhibit bioAβ42 assembly | dissociation of preformed bioAβ42 oligomers (in words) [2]: did not dissociate the preformed oligomers
